# Measured values reported in PubChem BioAssay AID540276 (National Center for Advancing Translational Sciences (NCATS), 2011).
# Out of some 300,000 compounds screened, about 5,400 (1.8%) were called active. This list was built around the results that the source calls inconclusive (neither active nor inactive); the mix of calls is not that of the screen. Calls come from the whole dose curve; tested in HEK293 cells. Potencies of inconclusive entries are doubtful fits and often do not repeat.
# Experiment: qHTS for inhibitors of binding or entry into cells for Marburg Virus
# Settings: Marburg virus pseudotyped entry inhibition, cell reporter; series mostly up to 37.8 µM
# Potency is the fitted concentration of half-maximal effect.
row,SMILES,Potency
1,O=C(NCc1ccccn1)C1CC(c2ccc(F)cc2)=NO1 (stereo not given),"inconclusive: 6.51 µM [activator, single point]"
2,O=c1c(-c2cc(-c3ccc(F)cc3)nc3c2COc2ccc(Cl)cc2-3)coc2ccc(F)cc12,inactive
3,Cc1ccc(-n2nc(C(=O)O)nc2-c2ccccc2)cc1,"inconclusive: 3.16 µM [activator, single point]"
4,CCN1CCN(C(=O)c2ccc3c(c2)N(Cc2c(F)cccc2Cl)C(=O)c2ccccc2S3)CC1,"inconclusive: 35.5 µM [inhibitor, single point]"
5,CC(C)NC(=O)CSCc1ccccc1Cl,"inconclusive: 12.6 µM [activator, single point]"
6,O=C(N/N=C/c1ccccn1)c1cc(C2CC2)[nH]n1,"inconclusive: 0.562 µM [activator, full curve, poor fit]"
7,COc1ccc2[nH]c(C(=O)N3CCCN(Cc4ccc(F)cc4)CC3)cc2c1,"inconclusive: 11.2 µM [inhibitor, partial curve, poor fit]"
8,CCOC(=O)c1cc2c(=O)n3ccccc3nc2n(C(C)C)c1=NC(=O)c1ccncc1,"inconclusive: 2.82 µM [inhibitor, full curve, poor fit]"
9,CCOC(=O)C1=C(COC(=O)/C=C/c2ccccc2)NC(=O)NC1C (stereo not given),"inconclusive: 3.55 µM [activator, partial curve, poor fit]"
10,COC(=O)c1cc2occc2n1Cc1nc(-c2ccccc2C)oc1C,"inconclusive: 35.5 µM [activator, single point]"
11,O=[N+]([O-])c1cccc(OCC(O)CN2CCN(S(=O)(=O)c3cc(Cl)ccc3Cl)CC2)c1 (stereo not given),"inconclusive: 35.5 µM [inhibitor, single point]"
12,CCOc1ccccc1CN1C(=O)c2ccccc2C1C(=O)NC1CCCCCC1 (stereo not given),"inconclusive: 7.94 µM [inhibitor, partial curve, poor fit]"
13,CC(C)(C)c1cc2cccnc2n1Cc1cccc(F)c1,"inconclusive: 17.8 µM [inhibitor, single point]"
14,COc1cc(C(=O)OCc2csc(CC(=O)Nc3ccccc3C)n2)ccc1OCC(C)C,"inconclusive: 10 µM [inhibitor, partial curve, poor fit]"
15,CCn1c(C)c(/C=N/Nc2nc3ccccc3s2)c2ccccc21,"inconclusive: 25.9 µM [inhibitor, single point]"
16,CC(=O)Nc1ccc(Nc2nc(-c3sc(NC(C)=O)nc3C)cs2)cc1,active: 3.16 µM
17,COc1cccc(NC(=O)N(Cc2ccco2)C(C)c2cccs2)c1 (stereo not given),"inconclusive: 7.3 µM [inhibitor, partial curve, poor fit]"
18,COc1cc2[nH]c(=S)n(NC(=O)CC(C)C)c(=O)c2cc1OC,inactive
19,Cc1ccc(-c2noc(CN(C3CCCCC3)S(=O)(=O)c3ccc(F)cc3)n2)cc1,"inconclusive: 3.98 µM [inhibitor, partial curve, poor fit]"
20,Cc1ccc(C)c(CN2C(=O)COc3ccc(C(=O)c4ccccc4C(=O)O)cc32)c1,"inconclusive: 14.1 µM [inhibitor, partial curve, poor fit]"

row,SMILES,Potency
1,CC(C)CNC(CC(=O)Nc1cccc([N+](=O)[O-])c1)C(=O)O (stereo not given),"inconclusive: 0.631 µM [inhibitor, partial curve, poor fit]"
2,COc1ccc(-c2cc(C(=O)OCC(=O)N3CCCCC3)c3ccccc3n2)cc1OC,"inconclusive: 25.1 µM [inhibitor, single point]"
3,C=C(NC(=O)C(=C)NC(=O)c1csc(C2=NC3c4csc(n4)C4NC(=O)c5csc(n5)C(C(C)(O)C(C)O)NC(=O)C5CSC(=N5)/C(=C/C)NC(=O)C(C(C)O)NC(=O)c5csc(n5)C3(CC2)NC(=O)C(C)NC(=O)C(=C)NC(=O)C(=C)NC(=O)C(C(C)C)NC2C=Cc3c(C(C)O)cc(nc3C2O)C(=O)OC4C)n1)C(N)=O (stereo not given),active: 3.98 µM
4,O=C(c1ccccc1)C1OC1C(=O)c1ccccc1 (stereo not given),active: 7.94 µM
5,c1ccc(CSc2nnc(Cc3ccccc3)o2)cc1,inactive
6,COc1ccc(NP(=O)(Oc2ccc(Cl)cc2)Oc2ccc(Cl)cc2)cc1OC,"inconclusive: 35.5 µM [inhibitor, single point]"
7,COc1cccc(OC)c1C(=O)Nc1cc(Cl)ccc1N1CCOCC1,inactive
8,CCc1ccc(N2CC(C(=O)N/N=C/c3ccccc3OC)CC2=O)cc1 (stereo not given),inactive
9,O=C(Cn1nnc(-c2ccc(F)cc2)n1)Nc1ccc2c(c1)OCCO2,"inconclusive: 11.2 µM [inhibitor, single point]"
10,CCOC(=O)NC(O)C(=O)c1ccc(F)cc1 (stereo not given),inactive
11,CSc1ccc(C(=O)C2CCCN(Cc3ccc(N4CCNC4=O)cc3)C2)cc1 (stereo not given),"inconclusive: 11.2 µM [inhibitor, partial curve]"
12,COc1ccc(S(=O)(=O)N2CCC(C(=O)N3CCCCC3)CC2)cc1,inactive
13,Cc1cccc(C)c1NC(=O)CSc1cc(C(=O)c2nccn2C)c2ccccc2n1,"inconclusive: 0.398 µM [activator, partial curve, poor fit]"
14,Cc1ccc(C2=NOC(=O)/C2=C\C=C\c2ccccc2)cc1,"inconclusive: 35.5 µM [inhibitor, single point]"
15,Cc1cccc(NC(=O)COC(=O)[C@@H]2CCCN2C(=O)c2cccs2)c1,inactive
16,CNc1nc(Nc2ccc(Br)cc2)nc(N)c1[N+](=O)[O-],"inconclusive: 2.82 µM [activator, partial curve, poor fit]"
17,CN(C)c1cc[n+](Cc2c(Cl)cccc2Cl)cc1,"inconclusive: 8.2 µM [inhibitor, partial curve, poor fit]"
18,O=C(CCC(=O)c1ccc(F)cc1)OCc1nnc(-c2ccc([N+](=O)[O-])cc2)o1,"inconclusive: 1.26 µM [inhibitor, single point]"
19,COc1ccccc1NS(=O)(=O)c1cccc(C(=O)N2CCN(C/C=C/c3ccccc3)CC2)c1,"inconclusive: 35.5 µM [inhibitor, single point]"
20,COCCN(CC(=O)Nc1cccc(S(=O)(=O)N2CCCC2)c1)Cc1nc2ccccc2c(=O)[nH]1,inactive

# Of the compounds above, 2 contain a thiophene ring, fused or not.
row,SMILES,Potency
17,COc1cccc(NC(=O)N(Cc2ccco2)C(C)c2cccs2)c1 (stereo not given),"inconclusive: 7.3 µM [inhibitor, partial curve, poor fit]"
15,Cc1cccc(NC(=O)COC(=O)[C@@H]2CCCN2C(=O)c2cccs2)c1,inactive
